# The list shows a part of the results.
# By UniProt entry, the sequences of proteins in these tests, tags left out. Where a name states a change or a piece, a line headed by the entry shows the natural chain unless it says otherwise.
# UniProt P16083: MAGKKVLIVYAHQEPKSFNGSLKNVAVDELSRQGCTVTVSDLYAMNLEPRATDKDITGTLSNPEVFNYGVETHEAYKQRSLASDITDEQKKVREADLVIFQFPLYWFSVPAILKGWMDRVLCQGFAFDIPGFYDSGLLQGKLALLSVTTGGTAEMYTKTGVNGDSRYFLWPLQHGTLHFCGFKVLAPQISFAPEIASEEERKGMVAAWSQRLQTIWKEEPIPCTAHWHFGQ
# UniProt O43847: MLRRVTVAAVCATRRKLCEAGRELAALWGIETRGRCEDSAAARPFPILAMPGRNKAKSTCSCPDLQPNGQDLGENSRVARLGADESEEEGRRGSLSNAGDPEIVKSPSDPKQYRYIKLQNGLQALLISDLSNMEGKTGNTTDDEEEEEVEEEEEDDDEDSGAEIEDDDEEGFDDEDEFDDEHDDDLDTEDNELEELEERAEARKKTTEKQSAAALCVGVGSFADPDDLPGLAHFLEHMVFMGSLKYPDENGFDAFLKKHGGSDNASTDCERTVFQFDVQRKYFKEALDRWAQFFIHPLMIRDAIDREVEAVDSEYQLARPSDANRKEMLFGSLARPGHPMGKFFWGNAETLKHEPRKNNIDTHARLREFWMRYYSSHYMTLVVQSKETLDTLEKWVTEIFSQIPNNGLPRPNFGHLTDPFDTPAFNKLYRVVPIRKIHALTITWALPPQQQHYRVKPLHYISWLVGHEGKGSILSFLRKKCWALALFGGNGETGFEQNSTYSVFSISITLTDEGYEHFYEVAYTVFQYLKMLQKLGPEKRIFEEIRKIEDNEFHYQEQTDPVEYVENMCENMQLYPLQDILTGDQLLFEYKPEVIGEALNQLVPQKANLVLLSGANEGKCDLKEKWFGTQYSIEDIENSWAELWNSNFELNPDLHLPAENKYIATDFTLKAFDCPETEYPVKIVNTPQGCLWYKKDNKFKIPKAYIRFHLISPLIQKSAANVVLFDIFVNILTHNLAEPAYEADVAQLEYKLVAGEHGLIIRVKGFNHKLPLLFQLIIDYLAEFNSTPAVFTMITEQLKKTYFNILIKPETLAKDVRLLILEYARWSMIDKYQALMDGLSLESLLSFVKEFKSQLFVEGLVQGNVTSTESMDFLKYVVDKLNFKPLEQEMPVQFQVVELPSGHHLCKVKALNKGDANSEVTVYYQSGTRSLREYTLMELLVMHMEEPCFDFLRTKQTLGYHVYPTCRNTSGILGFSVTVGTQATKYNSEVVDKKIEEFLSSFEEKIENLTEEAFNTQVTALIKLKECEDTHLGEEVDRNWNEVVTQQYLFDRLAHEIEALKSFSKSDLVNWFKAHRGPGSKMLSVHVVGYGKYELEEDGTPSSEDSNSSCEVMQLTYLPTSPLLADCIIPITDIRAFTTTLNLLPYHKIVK
# UniProt Q9UGY1: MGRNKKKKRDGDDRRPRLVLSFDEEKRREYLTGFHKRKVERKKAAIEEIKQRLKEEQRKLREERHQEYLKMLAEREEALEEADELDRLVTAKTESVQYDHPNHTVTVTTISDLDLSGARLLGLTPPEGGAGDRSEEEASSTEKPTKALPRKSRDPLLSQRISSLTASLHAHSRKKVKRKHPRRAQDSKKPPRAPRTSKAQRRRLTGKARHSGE
# UniProt P15559, whole entry, looked up: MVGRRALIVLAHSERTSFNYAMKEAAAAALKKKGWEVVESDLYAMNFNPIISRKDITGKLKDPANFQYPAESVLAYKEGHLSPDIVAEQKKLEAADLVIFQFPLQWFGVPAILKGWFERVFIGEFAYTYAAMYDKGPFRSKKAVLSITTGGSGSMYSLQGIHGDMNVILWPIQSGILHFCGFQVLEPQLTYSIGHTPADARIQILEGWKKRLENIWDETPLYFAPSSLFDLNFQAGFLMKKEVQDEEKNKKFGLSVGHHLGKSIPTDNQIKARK
# UniProt O60551: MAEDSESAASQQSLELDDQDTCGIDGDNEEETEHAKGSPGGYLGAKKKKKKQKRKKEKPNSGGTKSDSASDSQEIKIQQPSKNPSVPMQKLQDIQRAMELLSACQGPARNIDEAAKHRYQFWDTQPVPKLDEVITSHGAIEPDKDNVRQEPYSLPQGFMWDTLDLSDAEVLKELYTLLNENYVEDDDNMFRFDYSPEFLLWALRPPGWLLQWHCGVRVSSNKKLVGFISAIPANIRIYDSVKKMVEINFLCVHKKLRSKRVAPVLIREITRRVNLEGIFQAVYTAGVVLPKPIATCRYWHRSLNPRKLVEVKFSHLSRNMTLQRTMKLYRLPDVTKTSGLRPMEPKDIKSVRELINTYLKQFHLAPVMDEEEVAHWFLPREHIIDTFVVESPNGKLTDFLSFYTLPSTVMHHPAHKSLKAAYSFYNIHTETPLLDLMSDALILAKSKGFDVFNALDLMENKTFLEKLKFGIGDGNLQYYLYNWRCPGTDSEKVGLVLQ
# UniProt Q9BSD7: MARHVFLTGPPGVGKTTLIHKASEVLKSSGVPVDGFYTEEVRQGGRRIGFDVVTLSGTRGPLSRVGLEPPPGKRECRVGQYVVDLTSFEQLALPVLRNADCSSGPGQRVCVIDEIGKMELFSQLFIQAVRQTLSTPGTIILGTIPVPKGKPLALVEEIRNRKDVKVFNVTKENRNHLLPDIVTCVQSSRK
# UniProt Q92636: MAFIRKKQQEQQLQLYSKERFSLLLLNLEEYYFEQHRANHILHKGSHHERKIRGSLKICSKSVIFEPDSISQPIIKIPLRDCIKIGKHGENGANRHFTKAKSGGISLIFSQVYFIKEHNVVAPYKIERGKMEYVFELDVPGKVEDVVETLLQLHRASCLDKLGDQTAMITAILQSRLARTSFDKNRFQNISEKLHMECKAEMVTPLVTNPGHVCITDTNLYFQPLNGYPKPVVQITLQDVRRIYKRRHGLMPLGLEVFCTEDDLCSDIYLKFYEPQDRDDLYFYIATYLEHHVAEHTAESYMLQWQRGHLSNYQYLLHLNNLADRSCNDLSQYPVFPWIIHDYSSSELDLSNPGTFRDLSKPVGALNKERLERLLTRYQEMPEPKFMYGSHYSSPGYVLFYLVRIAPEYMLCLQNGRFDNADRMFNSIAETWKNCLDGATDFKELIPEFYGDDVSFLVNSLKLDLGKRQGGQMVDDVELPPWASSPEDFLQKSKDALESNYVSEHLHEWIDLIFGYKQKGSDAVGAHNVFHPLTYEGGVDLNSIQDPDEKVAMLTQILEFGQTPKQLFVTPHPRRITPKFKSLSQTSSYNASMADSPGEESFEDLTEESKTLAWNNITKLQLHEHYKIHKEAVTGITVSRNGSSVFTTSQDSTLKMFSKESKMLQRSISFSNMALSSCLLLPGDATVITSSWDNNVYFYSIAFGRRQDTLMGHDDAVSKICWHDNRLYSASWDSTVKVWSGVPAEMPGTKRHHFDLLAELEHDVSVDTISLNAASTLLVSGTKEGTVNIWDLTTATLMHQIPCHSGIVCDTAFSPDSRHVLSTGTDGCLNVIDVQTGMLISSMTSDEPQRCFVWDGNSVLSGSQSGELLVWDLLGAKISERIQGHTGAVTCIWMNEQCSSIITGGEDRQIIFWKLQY
# UniProt P0C024: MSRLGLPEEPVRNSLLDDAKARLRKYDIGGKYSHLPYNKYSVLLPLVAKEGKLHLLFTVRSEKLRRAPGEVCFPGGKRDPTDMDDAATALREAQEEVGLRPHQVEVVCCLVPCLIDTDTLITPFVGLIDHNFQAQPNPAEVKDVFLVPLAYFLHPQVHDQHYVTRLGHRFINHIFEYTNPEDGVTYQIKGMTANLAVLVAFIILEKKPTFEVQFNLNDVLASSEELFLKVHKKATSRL
# UniProt Q9Y3C1: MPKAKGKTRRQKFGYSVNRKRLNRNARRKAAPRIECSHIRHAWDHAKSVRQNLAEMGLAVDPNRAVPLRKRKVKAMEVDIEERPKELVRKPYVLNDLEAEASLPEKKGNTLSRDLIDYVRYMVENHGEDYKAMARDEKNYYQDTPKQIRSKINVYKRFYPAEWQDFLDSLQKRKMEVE
# UniProt Q13232: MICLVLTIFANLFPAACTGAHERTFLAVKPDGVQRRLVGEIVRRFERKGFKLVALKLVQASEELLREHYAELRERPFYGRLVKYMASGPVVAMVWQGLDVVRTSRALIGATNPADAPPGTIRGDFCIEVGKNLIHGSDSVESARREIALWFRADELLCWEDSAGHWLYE
# UniProt Q8WV74: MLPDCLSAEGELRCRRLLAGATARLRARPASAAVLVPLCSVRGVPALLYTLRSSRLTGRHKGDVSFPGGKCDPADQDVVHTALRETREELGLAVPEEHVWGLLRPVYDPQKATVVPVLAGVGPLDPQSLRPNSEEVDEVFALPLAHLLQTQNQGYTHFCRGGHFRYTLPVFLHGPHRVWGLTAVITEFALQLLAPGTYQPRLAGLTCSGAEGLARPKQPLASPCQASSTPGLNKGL
# UniProt P40261: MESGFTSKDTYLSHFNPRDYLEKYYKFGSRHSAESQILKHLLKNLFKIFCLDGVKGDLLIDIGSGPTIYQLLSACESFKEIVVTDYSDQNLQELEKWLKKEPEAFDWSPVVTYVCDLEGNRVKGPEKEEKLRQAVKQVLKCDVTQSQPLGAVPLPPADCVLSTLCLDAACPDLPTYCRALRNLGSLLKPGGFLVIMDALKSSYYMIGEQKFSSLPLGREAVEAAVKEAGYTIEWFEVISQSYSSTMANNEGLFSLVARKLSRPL
# UniProt Q86U38: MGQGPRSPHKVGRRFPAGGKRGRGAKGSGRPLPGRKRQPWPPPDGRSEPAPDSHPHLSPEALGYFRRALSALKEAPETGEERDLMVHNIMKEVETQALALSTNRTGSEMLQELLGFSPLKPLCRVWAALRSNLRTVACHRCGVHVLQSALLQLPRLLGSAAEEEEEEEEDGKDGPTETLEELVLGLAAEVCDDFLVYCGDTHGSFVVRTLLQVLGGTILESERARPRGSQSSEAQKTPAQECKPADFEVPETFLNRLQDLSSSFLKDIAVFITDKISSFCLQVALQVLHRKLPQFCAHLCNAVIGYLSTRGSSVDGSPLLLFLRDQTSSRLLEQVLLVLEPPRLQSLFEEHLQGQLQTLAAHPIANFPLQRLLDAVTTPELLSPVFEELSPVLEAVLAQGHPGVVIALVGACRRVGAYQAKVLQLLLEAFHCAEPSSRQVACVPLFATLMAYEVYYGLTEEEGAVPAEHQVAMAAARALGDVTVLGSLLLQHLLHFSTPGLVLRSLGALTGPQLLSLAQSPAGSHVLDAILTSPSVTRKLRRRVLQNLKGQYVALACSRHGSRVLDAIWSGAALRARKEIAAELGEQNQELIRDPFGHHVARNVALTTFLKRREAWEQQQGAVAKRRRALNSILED
# UniProt Q16656: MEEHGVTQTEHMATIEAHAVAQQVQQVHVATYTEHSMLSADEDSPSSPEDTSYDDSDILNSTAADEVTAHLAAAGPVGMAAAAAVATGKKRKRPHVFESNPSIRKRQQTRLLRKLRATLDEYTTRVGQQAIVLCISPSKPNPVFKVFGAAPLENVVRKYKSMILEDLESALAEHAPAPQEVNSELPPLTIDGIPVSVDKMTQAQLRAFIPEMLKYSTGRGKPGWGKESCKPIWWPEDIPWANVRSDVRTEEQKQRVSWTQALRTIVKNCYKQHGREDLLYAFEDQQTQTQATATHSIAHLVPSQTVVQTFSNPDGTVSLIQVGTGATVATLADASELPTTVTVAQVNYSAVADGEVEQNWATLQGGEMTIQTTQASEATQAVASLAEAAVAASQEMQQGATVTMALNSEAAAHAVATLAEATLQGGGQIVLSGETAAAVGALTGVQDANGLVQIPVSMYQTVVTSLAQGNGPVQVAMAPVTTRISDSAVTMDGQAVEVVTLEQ
# UniProt Q8NE18: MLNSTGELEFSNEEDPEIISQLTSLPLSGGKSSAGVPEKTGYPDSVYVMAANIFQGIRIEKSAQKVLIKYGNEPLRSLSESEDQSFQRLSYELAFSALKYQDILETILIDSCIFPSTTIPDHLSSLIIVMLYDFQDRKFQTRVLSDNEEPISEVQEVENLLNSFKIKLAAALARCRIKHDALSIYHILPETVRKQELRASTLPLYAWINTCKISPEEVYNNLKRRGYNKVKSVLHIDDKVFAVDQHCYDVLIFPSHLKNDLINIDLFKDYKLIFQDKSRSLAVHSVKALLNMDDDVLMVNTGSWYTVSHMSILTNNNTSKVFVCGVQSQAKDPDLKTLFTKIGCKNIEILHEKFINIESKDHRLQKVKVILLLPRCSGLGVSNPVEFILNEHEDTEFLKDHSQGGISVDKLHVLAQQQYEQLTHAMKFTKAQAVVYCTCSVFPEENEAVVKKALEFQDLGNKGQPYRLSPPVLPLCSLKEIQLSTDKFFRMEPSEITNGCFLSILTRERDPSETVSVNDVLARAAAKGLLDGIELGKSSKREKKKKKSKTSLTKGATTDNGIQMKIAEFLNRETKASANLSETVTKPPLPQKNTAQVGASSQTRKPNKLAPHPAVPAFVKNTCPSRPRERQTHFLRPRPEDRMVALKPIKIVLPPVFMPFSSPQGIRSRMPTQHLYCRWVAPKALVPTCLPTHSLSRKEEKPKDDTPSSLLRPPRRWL
# UniProt P15531, whole entry, looked up: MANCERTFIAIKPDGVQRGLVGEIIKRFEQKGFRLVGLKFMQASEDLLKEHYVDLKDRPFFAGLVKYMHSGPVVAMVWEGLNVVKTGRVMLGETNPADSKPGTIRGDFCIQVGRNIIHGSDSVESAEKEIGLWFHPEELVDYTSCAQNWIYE
# Legend:
# Assay in all cases: log2 fold change, soluble protein after heating vs DMSO (PISA); higher = thermal stabilisation; K562 lysate, 10 uM; active = over 0.2 and 3.5 SD of the protein, either way, in both replicates (recomputed)
# [1] = compound: NCC(=O)Nc1ccc(-n2nc(C(F)(F)F)cc2-c2ccc3c(ccc4ccccc43)c2)cc1
# Procedure, shortened: (§1)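 Soluble protein was defined as the supernatant remaining after 21,000xg for 90 min, following pooling of heated aliquots and adjustment to 0.5% NP-40 at 4°C. Before that, crude K562 extract at 1 mg/mL protein in PBS pH 7.4 with 1 mM MgCl2 was treated with 10 μM compound for 30 min and heated for 3 min across 48°C-58°C. Quantification used TMTpro 16plex LC-MS/MS with channel sums equalised, and values are log-two fold changes in thermal stability relative to solvent controls from duplicates.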
# [2] = compound: O=C(CCCCCCC(=O)Nc1ccccc1)NO [vorinostat]
# Procedure, shortened: as §1
# [3] = compound: O=C(O)c1ccc2c(c1)nc(Nc1cccc(Cl)c1)c1ccncc12 [silmitasertib]
# Procedure, shortened: as §1
# [4] = compound: O=C1NC(=O)C(c2cnc3ccccn23)=C1c1cn2c3c(cc(F)cc13)CN(C(=O)N1CCCCC1)CC2
# Procedure, shortened: as §1
# [5] = compound: c1cn2cc(-c3ccc4cn[nH]c4c3)nc(Nc3ccc(N4CCOCC4)cc3)c2n1 [entospletinib]
# Procedure, shortened: as §1
Target,log2 fold change [1],log2 fold change [2],log2 fold change [3],log2 fold change [4],log2 fold change [5]
NQO2 (UniProt P16083),inactive: -0.03,inactive: 0.113,inactive: 0.016,inactive: -0.053,inactive: 0.016
NUDT2 (UniProt P50583),inactive: -0.04,inactive: -0.017,inactive: 0.021,inactive: 0.038,inactive: 0.019
NMI (UniProt Q13287),inactive: 0.025,inactive: 0.075,inactive: -0.015,inactive: -0.014,inactive: -0.024
NOSIP (UniProt Q9Y314),inactive: -0.015,active: -0.809,inactive: -0.047,inactive: 0.002,inactive: 0.013
NOC2L (UniProt Q9Y3T9),inactive: -0.055,inactive: -0.126,inactive: 0.031,inactive: 0.009,inactive: 0.028
NUP107 (UniProt P57740),inactive: 0.034,inactive: -0.257,inactive: 0.036,inactive: 0.035,inactive: -0.028
NRDC isoform 2 (UniProt O43847),inactive: -0.016,inactive: 0.005,inactive: -0.012,inactive: -0.003,inactive: 0.006
NUCB2 (UniProt P80303),inactive: 0,inactive: 0.133,inactive: -0.026,inactive: -0.007,inactive: -0.008
NOP56 (UniProt O00567),inactive: -0.065,inactive: 0.005,inactive: 0.006,inactive: -0.014,inactive: -0.014
NSUN2 (UniProt Q08J23),inactive: 0.004,active: -0.42,inactive: 0.03,inactive: -0.007,inactive: 0.011
NRBP2 (UniProt Q9NSY0),inactive: 0.122,inactive: 0.034,inactive: 0.01,inactive: 0.018,inactive: 0.059
NOP53 (UniProt Q9NZM5),inactive: -0.028,inactive: 0.156,inactive: -0.01,inactive: 0.006,inactive: -0.021
NPC2 (UniProt P61916),inactive: -0.031,inactive: 0.119,inactive: -0.007,inactive: 0.049,inactive: 0.161
NOL12 (UniProt Q9UGY1),inactive: -0.06,inactive: 0.055,inactive: 0.046,inactive: 0.172,inactive: -0.037
NUDT15 (UniProt Q9NV35),inactive: 0.045,inactive: 0.168,inactive: -0.077,inactive: -0.066,inactive: -0.008
NUBP1 (UniProt P53384),inactive: -0.002,inactive: -0.153,inactive: 0.002,inactive: 0.025,inactive: -0.025
NOC3L (UniProt Q8WTT2),inactive: 0.012,inactive: -0.036,inactive: -0.029,inactive: 0.02,inactive: 0.039
NUMBL (UniProt Q9Y6R0),inactive: 0.04,inactive: -0.237,inactive: 0.201,inactive: 0.021,inactive: 0.102
NUMA1 (UniProt Q14980),inactive: -0.028,inactive: -0.152,inactive: 0.018,inactive: -0.013,inactive: 0.006
NQO1 (UniProt P15559),inactive: 0.008,inactive: -0.132,inactive: 0.038,inactive: 0.023,inactive: -0.027
NUDT18 (UniProt Q6ZVK8),inactive: 0.136,inactive: 0.016,inactive: -0.063,inactive: 0.054,inactive: 0.103
NMT2 (UniProt O60551),inactive: -0.065,inactive: -0.01,inactive: -0.015,inactive: -0.038,inactive: 0.015
NSF (UniProt P46459),inactive: -0.006,inactive: -0.176,inactive: 0.018,inactive: -0.011,inactive: 0.022
NTPCR (UniProt Q9BSD7),inactive: 0.014,active: -0.331,inactive: 0.029,inactive: 0.003,inactive: 0.059
NSMAF (UniProt Q92636),inactive: 0.019,inactive: 0.054,inactive: 0.022,inactive: -0.053,inactive: -0.006
NUDCD2 (UniProt Q8WVJ2),inactive: 0.019,inactive: 0.139,inactive: -0.041,inactive: 0.038,inactive: -0.029
NUDT7 (UniProt P0C024),inactive: 0.015,inactive: 0.19,inactive: -0.07,inactive: 0.15,inactive: -0.037

# Pulled one by one from above:
Target,log2 fold change [1],log2 fold change [2],log2 fold change [3],log2 fold change [4],log2 fold change [5]
NQO1 (UniProt P15559),inactive: 0.008,inactive: -0.132,inactive: 0.038,inactive: 0.023,inactive: -0.027
NPC2 (UniProt P61916),inactive: -0.031,inactive: 0.119,inactive: -0.007,inactive: 0.049,inactive: 0.161

# More results follow:

Target,log2 fold change [1],log2 fold change [2],log2 fold change [3],log2 fold change [4],log2 fold change [5]
NUP153 (UniProt P49790),inactive: 0.017,inactive: -0.04,inactive: -0.016,inactive: -0.016,inactive: -0.028
NOP16 (UniProt Q9Y3C1),inactive: 0.008,inactive: -0.05,inactive: -0.025,inactive: -0.054,inactive: -0.013
NME3 (UniProt Q13232),inactive: -0.014,inactive: -0.011,inactive: 0.031,inactive: 0.011,inactive: -0.086
NSRP1 (UniProt Q9H0G5),inactive: -0.01,inactive: 0.022,inactive: -0.013,inactive: 0.003,inactive: 0.011
NUDT8 (UniProt Q8WV74),inactive: 0.127,inactive: 0.149,inactive: -0.007,inactive: -0.154,inactive: -0.106
NUP133 (UniProt Q8WUM0),inactive: 0.045,inactive: -0.195,inactive: 0.052,inactive: 0.011,inactive: -0.033
NNMT (UniProt P40261),inactive: 0.014,inactive: -0.104,inactive: 0.014,inactive: 0.03,inactive: -0.004
NOP9 (UniProt Q86U38),inactive: 0.039,inactive: 0,inactive: 0.15,inactive: 0.037,inactive: -0.091
NUDT1 (UniProt P36639),inactive: 0.009,inactive: 0.06,inactive: -0.069,inactive: 0.004,inactive: -0.037
NUDT4 isoform 2 (UniProt Q9NZJ9),inactive: 0.057,active: -0.336,inactive: -0.034,inactive: 0.018,inactive: -0.023
NUDT5 (UniProt Q9UKK9),inactive: -0.018,inactive: 0.1,inactive: -0.021,inactive: 0.02,inactive: 0.012
NUDT6 (UniProt P53370),inactive: 0.128,inactive: 0.038,inactive: -0.096,inactive: 0.02,inactive: -0.225
NOTCH1 (UniProt P46531),inactive: -0.125,inactive: 0.118,inactive: 0.021,inactive: 0.014,inactive: 0.008
NSUN5 isoform 2 (UniProt Q96P11),inactive: -0.007,inactive: -0.173,inactive: 0.068,inactive: 0.001,inactive: -0.025
NOL7 (UniProt Q9UMY1),inactive: 0.029,inactive: 0.091,inactive: -0.031,inactive: -0.045,inactive: 0.015
NMNAT1 (UniProt Q9HAN9),inactive: -0.055,inactive: 0.089,inactive: 0.005,inactive: -0.026,inactive: -0.021
NOP14 (UniProt P78316),inactive: 0.001,inactive: 0.018,inactive: 0.019,inactive: 0.006,inactive: -0.034
NME7 (UniProt Q9Y5B8),inactive: 0.002,inactive: -0.136,inactive: -0.001,inactive: 0.007,inactive: -0.001
NNT (UniProt Q13423),inactive: 0.02,inactive: 0.023,inactive: -0.001,inactive: -0.036,inactive: -0.01
NRF1 isoform 4 (UniProt Q16656),inactive: 0.005,inactive: 0.033,inactive: -0.004,inactive: 0.008,inactive: 0.032
NOA1 (UniProt Q8NC60),inactive: 0.065,active: -0.411,inactive: 0.049,inactive: 0.048,inactive: -0.008
NSUN7 (UniProt Q8NE18),inactive: 0.241,inactive: -0.003,inactive: 0.005,inactive: -0.108,inactive: -0.042
NUDT12 (UniProt Q9BQG2),inactive: 0.046,inactive: -0.119,inactive: 0.098,inactive: -0.015,inactive: 0.014
NSL1 (UniProt Q96IY1),inactive: -0.012,active: -0.528,inactive: -0.022,inactive: -0.005,inactive: 0.03
NSMCE4A (UniProt Q9NXX6),inactive: 0,inactive: -0.164,inactive: -0.048,inactive: -0.022,inactive: 0.046
NME1 isoform 2 (UniProt P15531),inactive: 0,inactive: 0.127,inactive: -0.093,inactive: 0.061,inactive: 0.102
